Experimental data from US7465814B2, “Sulfonate compound and fluorescent probe using the same” (priority 2003, dated 2008).

Assay: Fluorescence response to glutathione, quantitativity (FIG. 5)
Format: biochemical
Conditions: up to 1000 pmol
Method: Quantitativity and the like of each of the compounds 6a and 8a with respect to a mercapto compound were evaluated, by using glutathione (GSH) and cysteine that are kinds of thiol. More specifically, an EtOH solution of the compound 6a (10 mM) was prepared, and it further was diluted by 500-fold with a HEPES buffer solution having a pH of 7.4, thereby preparing a probe solution containing the compound 6a. Next, 200 μL of this probe solution and 10 μL of each of solutions of glutathione or cysteine (dissolved in a HEPES buffer solution having a pH of 7.4) with various concentrations were added into each well of a 96-wellmicroplate, and were allowed to stand still at 37° C. for 10 minutes so as to undergo a reaction. Moreover, a probe solution containing 8a was prepared in the same manner as the preparation of the solution of the compound 6a except using 8a instead of 6a, and this probe solution also was allowed to react with a thiol solution in the same manner as the reaction of the probe solution containing 6a. Then, a fluorescence response of each well was measured after the reaction. The measurement of 6a was conducted at λex=383 nm and λem=500 nm, and the measurement of 8a was conducted at λex=483 nm and λem=515 nm. Herein, λex denotes an excitation wavelength, and λem denotes an emission wavelength. […]

Structure (SMILES): O=c1cc(C(F)(F)F)c2ccc(OS(=O)(=O)c3ccc([N+](=O)[O-])cc3[N+](=O)[O-])cc2o1 [Compound 6a]
- correlation coefficient (r), GSH: 0.9998

Structure (SMILES): O=C(O)c1ccccc1-c1c2ccc(=O)cc-2oc2cc(OS(=O)(=O)c3ccc([N+](=O)[O-])cc3[N+](=O)[O-])ccc12 [Compound 8a]
- correlation coefficient (r), GSH: 1.0000
